In patent publication US20160368879A1, “PHOTOACID GENERATOR, AND RESIN COMPOSITION FOR PHOTOLITHOGRAPHY” (SAN-APRO LTD., priority 2013, published 2016):

Assay: Resist curing properties: lowest exposure quantity of a phenol resin/melamine negative resist film
Details: for Resist curing properties: 1 part photoacid generator in phenol resin/CYMEL 300 resist, film about 3 μm, PEB 10 minutes 120° C., 0.5% potassium hydroxide development; for Lowest exposure quantity: lowest exposure (365 nm) giving change in film thickness before and after development within 10%
Procedure: A resin solution of 75 parts of a phenol resin (“PHENOLITE TD 431” available from DIC Corporation), 25 parts of a melamine curing agent (“CYMEL 300” available from MITSUI CYANAMID Co., Ltd.), 1 part of a synthesized photoacid generator and 200 parts of propylene glycol monomethyl ether acetate (hereinafter, abbreviated as PGMEA) was applied on a glass substrate of 10 cm square under a condition of 10 seconds at 1000 rpm using a spin coater. Then, the applied film was dried under vacuum for 5 minutes at 25° C., after which the film was dried for 3 minutes on an 80° C. hot plate to form a resist film with a film thickness of about 3 μm. The whole face of this resist film was exposed with a prescribed dose of ultraviolet light having a wavelength limited by the L-34 filter (a filter cutting light with a wavelength less than 340 nm, available from Kenko Optical Co., Ltd.) using an ultraviolet irradiation device (HMW-661F-01 available from ORC MANUFACTURING CO., LTD.). In this connection, a wavelength of 365 nm was measured for the integrated exposure quantity. Then, the film was subjected to post exposure baking (PEB) for 10 minutes with a 120° C. fair wind dryer, after which the film was immersed for 30 seconds in a 0.5% potassium hydroxide solution to be subjected to development, washed immediately with water and dried.
The film thickness of this resist film was measured using a shape measuring microscope (super-depth shape measuring microscope VK-8550, available from KEYENCE CORPORATION).
In this context, the resist curing properties were evaluated according to the following criteria on the basis of the lowest exposure quantity with which a change in film thickness of the resist film before and after development of within 10% was attained.
◯: The lowest exposure quantity is 250 mJ/cm^2 or less. Δ: The lowest exposure quantity is greater than 250 mJ/cm^2 and 500 mJ/cm^2 or less. x: The lowest exposure quantity is greater than 500 mJ/cm^2.

SMILES: CC1(C)C2CCC1(CS(=O)(=O)ON1C(=O)c3cccc4c(C(=O)Cc5ccccc5)ccc(c34)C1=O)C(=O)C2 (stereo not drawn) [Example A-44, 4-phenylacetyl-1,8-naphthalimide-(+)-10-camphorsulfonate]
- Resist curing properties: ∘
- Lowest exposure quantity: 210 mJ/cm^2

SMILES: O=C1c2cccc3cccc(c23)C(=O)N1OS(=O)(=O)C(F)(F)F [A′-1, 1,8-naphthalimide trifluoromethanesulfonate, reference compound]
- Lowest exposure quantity: 310 mJ/cm^2

SMILES: c1ccc(Sc2ccc([S+](c3ccccc3)c3ccccc3)cc2)cc1 [A′-2, reference compound]
- Lowest exposure quantity: 880 mJ/cm^2

SMILES: O=C1c2cccc3c(Oc4cccc(C(F)(F)F)c4)ccc(c23)C(=O)N1OS(=O)(=O)c1c(F)c(F)c(F)c(F)c1F [Example A-26, 4-(3-trifluoromethylphenoxy)-1,8-naphthalimide pentafluorobenzenesulfonate]
- Resist curing properties: ∘
- Lowest exposure quantity: 100 mJ/cm^2

SMILES: CC(C)Oc1ccc2c3c(cccc13)C(=O)N(OS(=O)(=O)CC13CCC(CC1=O)C3(C)C)C2=O (stereo not drawn) [Example A-41, 4-isopropoxy-1,8-naphthalimide-(+)-10-camphorsulfonate]
- Resist curing properties: ∘
- Lowest exposure quantity: 210 mJ/cm^2

SMILES: O=C1c2cccc3c(Sc4ccccc4)ccc(c23)C(=O)N1OS(=O)(=O)c1c(F)c(F)c(F)c(F)c1F [Example A-27, 4-phenylthio-1,8-naphthalimide pentafluorobenzenesulfonate]
- Resist curing properties: ∘
- Lowest exposure quantity: 140 mJ/cm^2

SMILES: CCCC(=O)Oc1cc2c3c(cccc3c1)C(=O)N(OS(=O)(=O)c1c(F)c(F)c(F)c(F)c1F)C2=O [Example A-30, 3-butyroyloxy-1,8-naphthalimide pentafluorobenzenesulfonate]
- Resist curing properties: ∘
- Lowest exposure quantity: 100 mJ/cm^2

SMILES: CC1(C)C2CCC1(CS(=O)(=O)ON1C(=O)c3cccc4c(Oc5cccc(C(F)(F)F)c5)ccc(c34)C1=O)C(=O)C2 (stereo not drawn) [Example A-46, 4-(3-trifluoromethylphenoxy)-1,8-naphthalimide-(+)-10-camphorsulfonate]
- Resist curing properties: ∘
- Lowest exposure quantity: 160 mJ/cm^2

SMILES: O=C1c2cccc3c(OCC(F)(F)C(F)F)ccc(c23)C(=O)N1OS(=O)(=O)C(F)(F)F [Example A-3, 4-(2,2,3,3-tetrafluoro-1-propoxy)-1,8-naphthalimide trifluoromethanesulfonate]
- Resist curing properties: ∘
- Lowest exposure quantity: 60 mJ/cm^2

SMILES: O=C(Oc1cc2c3c(cccc3c1)C(=O)N(OS(=O)(=O)C(F)(F)F)C2=O)c1c(F)c(F)c(F)c(F)c1F [Example A-12, 3-pentafluorobenzoyloxy-1,8-naphthalimide trifluoromethanesulfonate]
- Resist curing properties: ∘
- Lowest exposure quantity: 50 mJ/cm^2

SMILES: O=C1c2cccc3c(C(F)(F)C(F)(F)C(F)(F)C(F)(F)C(F)(F)C(F)(F)C(F)(F)C(F)(F)F)ccc(c23)C(=O)N1OS(=O)(=O)c1c(F)c(F)c(F)c(F)c1F [Example A-37, 4-(heptadecafluoro-n-octyl)-1,8-naphthalimide pentafluorobenzenesulfonate]
- Lowest exposure quantity: 310 mJ/cm^2

SMILES: O=C1c2cccc3c(Sc4ccccc4)ccc(c23)C(=O)N1OS(=O)(=O)C(F)(F)F [Example A-7, 4-phenylthio-1,8-naphthalimide trifluoromethanesulfonate]
- Resist curing properties: ∘
- Lowest exposure quantity: 75 mJ/cm^2

SMILES: O=C1c2cccc3c(Oc4c(F)c(F)c(F)c(F)c4F)ccc(c23)C(=O)N1OS(=O)(=O)C(F)(F)F [Example A-5, 4-pentafluorophenoxy-1,8-naphthalimide trifluoromethanesulfonate]
- Resist curing properties: ∘
- Lowest exposure quantity: 50 mJ/cm^2

SMILES: CC1(C)[C@@H]2CC[C@@]1(CS(=O)(=O)ON1C(=O)c3cccc4c([Si](C)(C)C)ccc(c34)C1=O)C(=O)C2 [Example A-58, 4-trimethylsilyl-1,8-naphthalimide-(+)-10-camphorsulfonate]
- Resist curing properties: ∘
- Lowest exposure quantity: 170 mJ/cm^2

SMILES: CC(C)(C)c1cc2c3c(cc(C(C)(C)C)cc3c1)C(=O)N(OS(=O)(=O)C(F)(F)F)C2=O [Example A-13, 3,6-di-tert-butyl-1,8-naphthalimide trifluoromethanesulfonate]
- Resist curing properties: ∘
- Lowest exposure quantity: 45 mJ/cm^2

SMILES: CCCC(=O)Oc1cc2c3c(cccc3c1)C(=O)N(OS(=O)(=O)C(F)(F)F)C2=O [Example A-10, 3-butyroyloxy-1,8-naphthalimide trifluoromethanesulfonate]
- Resist curing properties: ∘
- Lowest exposure quantity: 55 mJ/cm^2

SMILES: O=C(Oc1cc2c3c(cccc3c1)C(=O)N(OS(=O)(=O)C(F)(F)F)C2=O)c1ccccc1 [Example A-11, 3-benzoyloxy-1,8-naphthalimide trifluoromethanesulfonate]
- Resist curing properties: ∘
- Lowest exposure quantity: 60 mJ/cm^2

SMILES: CC1(C)C2CCC1(CS(=O)(=O)ON1C(=O)c3cccc4c(Cl)ccc(c34)C1=O)C(=O)C2 (stereo not drawn) [Example A-59, 4-chloro-1,8-naphthalimide-(+)-10-camphorsulfonate]
- Resist curing properties: ∘
- Lowest exposure quantity: 240 mJ/cm^2

SMILES: CCCOc1ccc2c3c(cccc13)C(=O)N(OS(=O)(=O)C(F)(F)F)C2=O [Example A-2, 4-n-propoxy-1,8-naphthalimide trifluoromethanesulfonate]
- Resist curing properties: ∘
- Lowest exposure quantity: 80 mJ/cm^2

SMILES: CCCOc1ccc2c3c(cccc13)C(=O)N(OS(=O)(=O)c1c(F)c(F)c(F)c(F)c1F)C2=O [Example A-22, 4-n-propoxy-1,8-naphthalimide pentafluorobenzenesulfonate]
- Resist curing properties: ∘
- Lowest exposure quantity: 140 mJ/cm^2

SMILES: O=C1c2cccc3c(OCC(F)(F)C(F)F)ccc(c23)C(=O)N1OS(=O)(=O)c1c(F)c(F)c(F)c(F)c1F [Example A-23, 4-(2,2,3,3-tetrafluoro-1-propoxy)-1,8-naphthalimide pentafluorobenzenesulfonate]
- Resist curing properties: ∘
- Lowest exposure quantity: 120 mJ/cm^2

SMILES: CC1(C)C2CC[C@@]1(CS(=O)(=O)ON1C(=O)c3cccc4c(Sc5ccccc5)ccc(c34)C1=O)C(=O)C2 [Example A-47, 4-phenylthio-1,8-naphthalimide-(+)-10-camphorsulfonate]
- Resist curing properties: ∘
- Lowest exposure quantity: 210 mJ/cm^2

SMILES: O=C(Cc1ccccc1)c1ccc2c3c(cccc13)C(=O)N(OS(=O)(=O)C(F)(F)F)C2=O [Example A-4, 4-phenylacetyl-1,8-naphthalimide trifluoromethanesulfonate]
- Resist curing properties: ∘
- Lowest exposure quantity: 75 mJ/cm^2

SMILES: O=C1c2cccc3c(Oc4c(F)c(F)c(F)c(F)c4F)ccc(c23)C(=O)N1OS(=O)(=O)c1c(F)c(F)c(F)c(F)c1F [Example A-25, 4-pentafluorophenoxy-1,8-naphthalimide pentafluorobenzenesulfonate]
- Resist curing properties: ∘
- Lowest exposure quantity: 90 mJ/cm^2

SMILES: CC1(C)C2CC[C@@]1(CS(=O)(=O)ON1C(=O)c3cccc4cc(OC(=O)c5c(F)c(F)c(F)c(F)c5F)cc(c34)C1=O)C(=O)C2 [Example A-52, 3-pentafluorobenzoyloxy-1,8-naphthalimide-(+)-10-camphorsulfonate]
- Resist curing properties: ∘
- Lowest exposure quantity: 140 mJ/cm^2

SMILES: O=C1c2cccc3c(Oc4cccc(C(F)(F)F)c4)ccc(c23)C(=O)N1OS(=O)(=O)C(F)(F)F [Example A-6, 4-(3-trifluoromethylphenoxy)-1,8-naphthalimide trifluoromethanesulfonate]
- Resist curing properties: ∘
- Lowest exposure quantity: 55 mJ/cm^2

SMILES: O=C1c2cccc3c(Cl)ccc(c23)C(=O)N1OS(=O)(=O)c1c(F)c(F)c(F)c(F)c1F [Example A-39, 4-chloro-1,8-naphthalimide pentafluorobenzenesulfonate]
- Resist curing properties: ∘
- Lowest exposure quantity: 160 mJ/cm^2

SMILES: C[Si](C)(C)c1ccc2c3c(cccc13)C(=O)N(OS(=O)(=O)C(F)(F)F)C2=O [Example A-18, 4-trimethylsilyl-1,8-naphthalimide trifluoromethanesulfonate]
- Resist curing properties: ∘
- Lowest exposure quantity: 60 mJ/cm^2

SMILES: O=C(Cc1ccccc1)c1ccc2c3c(cccc13)C(=O)N(OS(=O)(=O)c1c(F)c(F)c(F)c(F)c1F)C2=O [Example A-24, 4-phenylacetyl-1,8-naphthalimide pentafluorobenzenesulfonate]
- Resist curing properties: ∘
- Lowest exposure quantity: 135 mJ/cm^2

SMILES: CCCOc1ccc2c3c(cccc13)C(=O)N(OS(=O)(=O)CC13CCC(CC1=O)C3(C)C)C2=O (stereo not drawn) [Example A-42, 4-n-propoxy-1,8-naphthalimide-(+)-10-camphorsulfonate]
- Resist curing properties: ∘
- Lowest exposure quantity: 220 mJ/cm^2
